Test system: zebrafish embryos
Experiment: animal or person
Conditions: Danio rerio

Q: For O=[N+]([O-])c1ccc2ccc3ccc([N+](=O)[O-])c4ccc1c2c34 [1,8-dinitropyrene], which EC50 is on record?
A: The EC50 was 3.33 µM.
